In test [1] the target is SUMO1 (mouse (endogenous in lung tissue)) (UniProt P63166). Kind of test: co-IP; lung tissue lysates of wild-type and SENP1-KO mice (control, BLM, BLM + GA, with TGF-β1); anti-SUMO1, anti-SMAD4 or IgG crosslinked to protein A/G magnetic beads, overnight at 4 °C; western blot. (In general: In western blotting, separated proteins are transferred to a membrane and probed.)
The next test has as its target HA-SUMO1 (UniProt P63165). In words: co-IP; A549 cells transfected with HA-SUMO1, FLAG-SMAD4 and with or without His-SENP1; western blot.

By UniProt entry, the sequences of proteins in these tests, tags left out. Residues count along the entry.
UniProt P63166, residues 1-97: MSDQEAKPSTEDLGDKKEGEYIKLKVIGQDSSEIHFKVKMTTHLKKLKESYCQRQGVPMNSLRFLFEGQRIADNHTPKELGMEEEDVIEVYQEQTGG
UniProt P63165, residues 1-97: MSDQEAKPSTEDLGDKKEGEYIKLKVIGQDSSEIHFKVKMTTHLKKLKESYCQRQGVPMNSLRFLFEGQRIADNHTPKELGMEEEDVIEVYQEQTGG
UniProt P97471: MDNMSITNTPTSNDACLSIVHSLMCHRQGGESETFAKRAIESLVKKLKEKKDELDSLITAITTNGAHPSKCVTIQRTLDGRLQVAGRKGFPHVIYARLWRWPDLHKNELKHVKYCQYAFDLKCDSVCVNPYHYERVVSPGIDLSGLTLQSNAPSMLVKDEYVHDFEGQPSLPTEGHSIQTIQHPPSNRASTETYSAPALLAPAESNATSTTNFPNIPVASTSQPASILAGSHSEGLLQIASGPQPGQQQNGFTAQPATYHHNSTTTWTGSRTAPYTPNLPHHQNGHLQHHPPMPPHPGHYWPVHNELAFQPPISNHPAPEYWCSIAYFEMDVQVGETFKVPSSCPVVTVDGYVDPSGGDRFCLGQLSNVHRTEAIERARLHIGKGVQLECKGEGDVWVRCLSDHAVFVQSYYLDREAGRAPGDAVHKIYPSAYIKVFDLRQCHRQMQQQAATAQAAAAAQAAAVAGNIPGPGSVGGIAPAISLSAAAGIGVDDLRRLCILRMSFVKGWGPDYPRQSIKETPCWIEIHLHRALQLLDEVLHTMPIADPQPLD
UniProt Q13485: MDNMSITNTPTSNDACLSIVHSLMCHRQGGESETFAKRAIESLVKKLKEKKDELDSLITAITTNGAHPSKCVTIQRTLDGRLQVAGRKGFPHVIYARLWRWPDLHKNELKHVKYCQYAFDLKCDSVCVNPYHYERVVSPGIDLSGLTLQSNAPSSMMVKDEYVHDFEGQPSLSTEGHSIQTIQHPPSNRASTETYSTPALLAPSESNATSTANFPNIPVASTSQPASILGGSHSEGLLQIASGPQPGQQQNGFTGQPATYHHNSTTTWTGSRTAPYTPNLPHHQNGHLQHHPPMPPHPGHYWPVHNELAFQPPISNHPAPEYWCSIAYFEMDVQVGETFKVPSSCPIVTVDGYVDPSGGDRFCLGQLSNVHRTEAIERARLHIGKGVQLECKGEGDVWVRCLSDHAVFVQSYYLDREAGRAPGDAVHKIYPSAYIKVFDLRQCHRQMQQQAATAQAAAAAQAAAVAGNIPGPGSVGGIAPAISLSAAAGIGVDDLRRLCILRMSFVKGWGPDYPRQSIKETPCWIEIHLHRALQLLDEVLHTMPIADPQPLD

Binding data for two substances are collected here from article PMC9192210.

Results are given in words; binding and its absence hold for the method and conditions named. In cells and extracts the contact can be indirect. Some results given as binding are weak or reduced against the parent protein; the word gives no strength.

For SMAD4 (from UniProt P97471 1-551), the binding entry in test [1] is “binds”.
As for FLAG-SMAD4 (from UniProt Q13485 1-552), the binding entry in the test with HA-SUMO1 is listed as “binds”.
